# Test results: PubChem BioAssay AID652054 (National Center for Advancing Translational Sciences (NCATS), 2013)
# Amino acid sequences for entries named in this document (tags omitted).
# UniProt P35462, whole entry, looked up: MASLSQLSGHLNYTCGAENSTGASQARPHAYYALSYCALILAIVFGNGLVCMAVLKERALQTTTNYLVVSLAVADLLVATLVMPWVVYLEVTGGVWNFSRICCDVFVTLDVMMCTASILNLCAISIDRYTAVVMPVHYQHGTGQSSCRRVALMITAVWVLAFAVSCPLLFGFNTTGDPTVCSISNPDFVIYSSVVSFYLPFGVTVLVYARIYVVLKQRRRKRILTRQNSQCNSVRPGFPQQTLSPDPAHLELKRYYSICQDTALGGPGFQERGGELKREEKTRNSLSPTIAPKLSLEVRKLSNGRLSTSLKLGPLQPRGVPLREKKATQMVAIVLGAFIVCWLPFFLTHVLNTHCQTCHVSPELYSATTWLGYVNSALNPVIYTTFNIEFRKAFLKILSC
# The campaign covered roughly 360,000 compounds. About 9,100 (2.5%) were called active. The inconclusive results got no clear call from the source; some entries with a clear call stand among them for comparison. No stated cut-off is given here; in the data, active means max response below about -50%; inconclusive means no clear call, values can overlap the other calls; inactive means above that.
# Target: D(3) dopamine receptor (Homo sapiens) (UniProt P35462)
# Assay: qHTS of D3 Dopamine Receptor Antagonist: qHTS
# Conditions: D3R cells, DiscoveRx beta-arrestin luminescence, antagonist mode; hits give low values
# In short: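 Cells expressing the human receptor were seeded at 1500 cells/well, incubated overnight at 37 degrees C in 5% CO2, then exposed to library compounds with dopamine controls for 90 minutes at 37 degrees C before luminescent detection.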
# On the % scale 0 is the no-effect control and ±100 the full control effect.
row,SMILES,"max response, negative = inhibition"
1,Clc1ncc(CN2CCN(Cc3ccccc3)CC2)s1,inconclusive: -38.4%
2,Cc1onc(-c2ccccc2)c1C(=O)NC(=S)NNC(=O)c1ccc(O)cc1,inconclusive: -39.7%
3,OCC1(CCOc2ccccc2)CCN(CC2=Cc3cc(Cl)ccc3OC2)CC1,inconclusive: -43.8%
4,COc1ccc(F)cc1C(=O)C1CCCN(Cc2cccn2-c2ccccn2)C1 (centres undefined),inconclusive: -41.1%
5,COc1cc2cc(C(c3nnnn3C3CCCCC3)N(C)C3CCCCC3)c(=O)[nH]c2cc1OC (centres undefined),inconclusive: -34.2%
6,CCOC(=O)N1CCC(NC(=O)c2cc(C)c3c(C)nn(-c4ccccc4)c3n2)CC1,inactive: 3.34%
7,CC(C)NC(=O)COc1coc(CN2CCN(c3ccccc3)CC2)cc1=O,active: -61.7%
8,O=C(CNC(=O)c1cc(S(=O)(=O)N2CCOCC2)ccc1N1CCCC1)Nc1ccc(F)c(F)c1,inconclusive: -35.6%
9,Cc1ccc(NC(=S)NNC(=S)NCc2ccccc2)cc1,inconclusive: -44.9%
10,O=C(Nc1nc(-c2cc(F)ccc2F)cs1)C1=COCCO1,inconclusive: -33.9%
11,COc1cc(C#CC#CCN2CCCCC2)ccc1O,active: -116%
12,CCN(CCC(=O)Nc1cc([N+](=O)[O-])ccc1OC)Cc1ccccc1,active: -80.6%
13,O=C1NC[C@H](CCCCN2CCN(Cc3ccccc3)C(=O)C2=O)N(Cc2ccccc2)C1=O,inconclusive: -37.1%
14,O=C(NC(=S)Nc1ccc(CN2CCCCC2)cc1)c1cccc(OCc2ccccc2)c1,inconclusive: -37.5%
15,C=Cc1ccc(Cn2c(C)c(C(=O)NCc3ccc4c(c3)OCCO4)sc2=O)cc1,inconclusive: -37.4%
16,CC(=O)Nc1ccc(-c2csc(NC(=O)c3ccc(C)o3)n2)cc1,inconclusive: -43.1%
17,COc1ccc(CN2CCc3cc(OC)c(OC)cc3C2)cc1O,active: -57.6%
18,CCC(C)c1ccccc1NC(=O)CN(CC)CC(=O)Nc1ccc2c(c1)OCCO2 (centres undefined),inconclusive: -33.6%
19,C=CS(=O)c1sc(Cl)c(N2CCOCC2)c1[N+](=O)[O-] (centres undefined),active: -84.2%
20,O=C1CC(SCc2nc3ccccc3[nH]2)C(=O)N1c1ccc(F)cc1 (centres undefined),active: -65.8%
21,COc1ccc2nc(NC(=O)CSc3nc(C)cc(C)n3)sc2c1,inconclusive: -35.2%
22,Cc1ccc(SCc2c(C#N)c3ccccc3n2C)cc1,inactive: -3.17%
23,COc1ccc(C(=S)N2CCCCCC2)cc1,inconclusive: -31.3%

row,SMILES,"max response, negative = inhibition"
1,COc1cccc(NC(=O)CSc2nnc(NC(=O)C3CC3)s2)c1,active: -57.4%
2,CCCCCCN1CCN(C2CN(Cc3ccc(F)cc3)S(=O)(=O)C2)CC1 (centres undefined),inconclusive: -38.2%
3,CCOC(=O)N1CCN(C(=O)CSc2nnc(Cc3cccn3C)n2CCc2ccccc2)CC1,inconclusive: -42.1%
4,COc1ccc(C=Nc2cccnc2N)cc1,inactive: 0.783%
5,CC(C)(C)n1ncc2c(=O)n(CC(=O)OCc3ccccc3)cnc21,inconclusive: -44.2%
6,CCN=C1S/C(=C\c2ccc(O)c(OCC)c2)C(=O)N1CC,inactive: 6.54%
7,CCc1ccc(CNCc2cccnc2)cc1,inconclusive: -32.5%
8,CCCCNCc1cc2ccccc2o1,active: -50.5%
9,COc1ccc(OCC(=O)Nc2ccc(NC(=O)c3cccs3)c(OC)c2)cc1,inactive: -3.45%
10,CC1(C(=O)OCC(=O)Nc2ccc(C(N)=O)cc2)CC1(Cl)Cl (centres undefined),inactive: 4.38%
11,COC(=O)C1CCN(C(=O)CN2C(=O)NC(CCc3ccccc3)C2=O)CC1 (centres undefined),inconclusive: -41.2%
12,OC[C@@H]1CN(CCN2CCOCC2)C[C@H](n2cnc3c(NC4CCCC4)ncnc32)O1,active: -51.2%
13,CC(=O)c1ccc(OC(C)C(=O)OCC(=O)NCCc2ccccc2)cc1 (centres undefined),inactive: -15.5%
14,CCCC(C)(C)C(=O)N1CCC1(C)C(=O)NS(=O)(=O)c1cccc(Cl)c1 (centres undefined),inactive: 6.96%
15,CCc1cc(=O)oc2cc3occ(C)c3cc12,inactive: 7.02%
16,Cc1cc(-c2n[nH]c(=S)n2Cc2ccco2)nn1C,inconclusive: -37.4%
17,CCOC(=O)[C@@H]1[C@H]2COc3ccc(Br)cc3[C@H]2N2C(=O)N(c3ccc(OC)cc3)C(=O)[C@]12C,active: -62.4%
18,CCOC(=O)c1ccc(NC(=O)C2C3CCCCC32)cc1 (centres undefined),inactive: -10.4%
19,CCOC(=O)C1CCN(CC(C)(C)NS(=O)(=O)c2ccc(C)cc2)CC1,inactive: 9.73%
20,CCn1c(C)cs/c1=N\C(=S)Nc1ccccc1C,inactive: 0%
21,O=C(OCc1c(-c2ccccc2)ncc2ccccc12)c1cccs1,inconclusive: -37.7%
22,CC(C)C[C@@H](CO)N1CCN(CCc2ccccc2)CCC1=O,inconclusive: -32.5%
23,CCOC(=O)/C(C#N)=C\c1ccc(N2CCN(C/C=C/c3ccccc3)CC2)cc1,inconclusive: -45.8%

row,SMILES,"max response, negative = inhibition"
1,COc1ccc(CN2C3CCC2CC(NC(=O)c2cc(OC)c(OC)c(OC)c2)C3)cc1 (centres undefined),active: -66.4%
2,Cc1onc(-c2ccccc2Cl)c1C(=O)N1CCc2ccccc21,inconclusive: -36.1%
3,CCOc1cc(CN2CCCC(CNC(=O)c3ccc(F)cc3)C2)ccc1OC (centres undefined),inconclusive: -38.7%
4,O=C(CNC(=O)c1ccco1)OCC(=O)c1ccc(Cl)cc1,inactive: 23.2%
5,CN(CCCNC(=O)C1CCN(S(=O)(=O)c2cccc3nsnc23)CC1)Cc1ccccc1,inconclusive: -39.2%
6,O=C(NNc1nc2ccccc2nc1C(F)(F)F)c1ccccc1,inconclusive: -36.2%
7,COc1ccc(OC)c(-n2c(-c3ccc(O)cc3O)n[nH]c2=S)c1,inconclusive: -35.6%
8,COc1ccccc1C(=O)NNC(=S)Nc1ccccc1,inconclusive: -46.2%
9,CN1CCN(c2ccc(NS(=O)(=O)c3ccc(Cl)cc3)cn2)CC1,inconclusive: -41.1%
10,c1cc(-c2ccc(CN3CCOCC3)cc2)n2ccnc2c1,inactive: -3.46%
11,CC(C)(C)c1ccc(OCC(O)CN2CCc3ccccc3C2)cc1 (centres undefined),active: -119%
12,CC(C)(C)OC1NS(=O)(=O)OCC1NCOC(Cl)(Cl)Cl (centres undefined),inconclusive: -46.4%
13,CCCCN(C)CCCNC(=O)c1ccc(N2CCCC2=O)cc1,inconclusive: -31.4%
14,O=C(Cc1cccc(NC(=O)C2CCCN(C(=O)c3ccccc3)C2)c1)Nc1ccc(C(=O)N2CCCCC2)cc1 (centres undefined),inconclusive: -35%
15,C=CC[C@H](CC(=O)NCCO)C(=O)NCCOC(=O)[C@@H](CC=C)Cc1ccc(F)cc1,inconclusive: -37.1%
16,CCOc1ccc(C(=O)N(C)C2CCS(=O)(=O)C2)cc1 (centres undefined),inconclusive: -39.7%
17,CCCCN(C)C(=O)c1sc(=O)n(Cc2c(C)cccc2C)c1C,inconclusive: -32.9%
18,CCC(C)c1ccc(NC(=O)Nc2cccnc2)cc1 (centres undefined),inactive: -4.5%
19,O=C(NCc1ccc2c(c1)OCO2)c1ccc(CN2CCc3ccccc3C2)cc1,inconclusive: -44.5%
20,COc1ccc(S(=O)(=O)NN(C)c2ncc(C(F)(F)F)cc2Cl)cc1,inactive: -21.1%
21,CC1(C(=O)NS(=O)(=O)c2cccc(Cl)c2)CCN1C(=O)Cc1ccc(Cl)cc1Cl (centres undefined),active: -82.8%
22,COc1ccccc1N1CCN(Cc2ccc(-c3ccccc3[N+](=O)[O-])o2)CC1,active: -85.6%
23,CCN(CC(=O)NCc1ccc(F)cc1)C(=O)CN1CCN(c2ccc(OC)cc2)CC1,inconclusive: -40%

row,SMILES,"max response, negative = inhibition"
1,O=C(Nc1ccc2c(c1)OCO2)c1cccc(S(=O)(=O)N2CCCC2)c1,inconclusive: -35%
2,COc1cc(-c2noc(C)c2/C=C/c2ccc(C(=O)O)cc2)cc(OC)c1OC,inactive: 0%
3,COc1ccc2[nH]cc(/C=C(/C#N)S(=O)(=O)c3ccccc3)c2c1,active: -50.9%
4,CCCc1ccc(Oc2c(-c3ccc(O)c(C)c3O)n[nH]c2C)cc1,active: -80.8%
5,Cn1c(=O)[nH]c2sc3c(c2c1=O)CC(C)(C)OC3,inconclusive: -35.1%
6,CCCCN(C/C=C/c1ccccc1OC)Cc1ccccc1,inconclusive: -33.1%
7,CNC(C)c1cc(OC)ccc1OC (centres undefined),inconclusive: -43.1%
8,c1ccc(Nc2nc(N3CCCCC3)nc(N3CCNCC3)n2)cc1,inconclusive: -45.1%
9,Cc1oc2c(c1C(=O)c1ccc(Cl)cc1)C(=O)C(=O)c1ccccc1-2,inconclusive: -40.8%
10,Cc1cc(C)c(NC(=O)CS(=O)CC(=O)NCCN2CCCCCC2)c(C)c1 (centres undefined),inconclusive: -32.7%
11,N#CC1=C(N)Oc2n[nH]c(-c3ccccc3)c2C1c1cccnc1 (centres undefined),inconclusive: -39.7%
12,CCCc1[nH]n(-c2nc3ccccc3s2)c(=O)c1C=NCCN1CCOCC1,inconclusive: -31.9%
13,COc1ccc(C[C@@H]2CN3C(=NC[C@@H]3C)N2CCNC(=O)c2ccc(C)c(Br)c2)cc1,active: -51.7%
14,O=C1C(=O)N(CCCN2CCOCC2)C(c2ccc([N+](=O)[O-])cc2)/C1=C(\O)c1ccc2c(c1)OCCO2 (centres undefined),inconclusive: -34.9%
15,COc1cccc(/C=C2/SC(=S)N(CCCC(=O)Nc3ccc(O)cc3)C2=O)c1,inconclusive: -33.4%
16,CN1CCc2c(sc(/N=C/c3c[nH]c4ccccc34)c2C#N)C1,inconclusive: -39.9%
17,CC(C)(C)SCCNC(=O)c1ccc(CN2CCc3ccccc3C2)cc1,active: -74%
18,S=c1[nH]nc(-c2cccnc2)n1Cc1ccccc1,active: -52.9%
19,Cc1cccc(C)c1Nc1c(-c2ccsc2)nc2ncccn12,inactive: 2.77%
20,Cc1cnc(NC(=O)C2=C(O)c3ccccc3S(=O)(=O)N2C)s1,inconclusive: -32.6%

# Three entries out of the list, ordered by SMILES length, rising:
row,SMILES,"max response, negative = inhibition"
18,S=c1[nH]nc(-c2cccnc2)n1Cc1ccccc1,active: -52.9%
16,CN1CCc2c(sc(/N=C/c3c[nH]c4ccccc34)c2C#N)C1,inconclusive: -39.9%
1,O=C(Nc1ccc2c(c1)OCO2)c1cccc(S(=O)(=O)N2CCCC2)c1,inconclusive: -35%
